From PMC10482964
These are yes or no findings as the source states them, for the method shown. In cells and extracts the contact can be indirect. Here binding means that the protein was enriched with, or labelled near, the bait; the list need not be complete.

Amino acid sequences for entries named in this document (tags omitted).
UniProt Q8R5A0: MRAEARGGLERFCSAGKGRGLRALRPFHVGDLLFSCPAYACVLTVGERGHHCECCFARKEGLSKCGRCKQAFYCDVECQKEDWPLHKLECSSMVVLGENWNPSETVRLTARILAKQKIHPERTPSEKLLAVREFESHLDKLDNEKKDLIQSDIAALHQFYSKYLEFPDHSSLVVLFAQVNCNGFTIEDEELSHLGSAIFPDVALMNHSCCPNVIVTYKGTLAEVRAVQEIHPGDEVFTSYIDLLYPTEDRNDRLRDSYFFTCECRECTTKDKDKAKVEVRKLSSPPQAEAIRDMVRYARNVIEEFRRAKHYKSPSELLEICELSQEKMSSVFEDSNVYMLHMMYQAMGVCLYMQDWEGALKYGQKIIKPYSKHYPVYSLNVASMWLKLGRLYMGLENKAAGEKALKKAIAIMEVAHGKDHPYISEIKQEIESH
UniProt P63087: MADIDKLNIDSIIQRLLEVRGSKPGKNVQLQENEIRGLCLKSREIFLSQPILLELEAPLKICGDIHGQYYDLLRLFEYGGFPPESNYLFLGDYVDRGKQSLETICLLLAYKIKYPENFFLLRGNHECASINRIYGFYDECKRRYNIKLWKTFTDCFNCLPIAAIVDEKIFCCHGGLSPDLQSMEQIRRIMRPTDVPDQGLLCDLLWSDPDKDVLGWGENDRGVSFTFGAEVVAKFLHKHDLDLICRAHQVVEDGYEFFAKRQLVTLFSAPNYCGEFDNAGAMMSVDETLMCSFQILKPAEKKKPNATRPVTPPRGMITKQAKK
UniProt P62137: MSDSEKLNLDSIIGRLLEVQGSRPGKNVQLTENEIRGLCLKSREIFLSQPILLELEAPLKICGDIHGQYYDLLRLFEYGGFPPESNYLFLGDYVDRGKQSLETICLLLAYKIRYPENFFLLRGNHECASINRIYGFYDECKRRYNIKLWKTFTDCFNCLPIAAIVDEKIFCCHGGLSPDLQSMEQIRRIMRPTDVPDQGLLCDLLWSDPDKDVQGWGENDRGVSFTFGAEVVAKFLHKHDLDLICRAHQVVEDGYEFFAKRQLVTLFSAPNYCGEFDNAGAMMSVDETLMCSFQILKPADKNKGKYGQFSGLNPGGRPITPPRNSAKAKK

Biological target: endogenous SMYD2 (peritoneal macrophages) (mouse (endogenous in peritoneal macrophages)) (UniProt Q8R5A0)
Experiment: affinity purification with mass spectrometry

Substance | binding
endogenous Ppp1cc (peritoneal macrophages) (from UniProt P63087 1-323) (enzyme) | binds
endogenous PP1α (peritoneal macrophages) (from UniProt P62137 1-330) (enzyme) | binds
